The other results are listed elsewhere or left out. These are further read-outs of the screen, such as a control signal, another cell line or another target. No call is given for them. The list favours compounds with an active or inconclusive main result. Potencies come from curve fits of mixed quality, noted in brackets.
Experiment: qHTS Assay for Modulators of Lamin A Splicing
Settings: HeLa LMNA splicing GFP/RFP minigene ratio, 48 h
In short: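 S3 HeLa cells stably expressing lamin A-EGFP splicing minigene plus DsRed2, 600 cells/well, 48 h compound exposure at 37C. Laser-scanning cytometry; analysed as GFP (500-530 nm)/RFP (575-640 nm) total intensity ratio; 0.5% DMSO vehicle.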

[1] = measured here: GFP splicing reporter channel
[2] = measured here: RFP viability control channel

SMILES	AC50 [1]	AC50 [2]
COc1ccc(N2C(=O)CC2(C#N)c2ccc(OCc3ccccc3)cc2)cc1 (stereo not drawn)	7.94 µM [rising, partial curve]	28.2 µM [rising, single point]
Cc1[nH]c2ccccc2c1C(=O)C(=O)NCCC1=CCCCC1	0.158 µM [falling, full curve, poor fit]	3.55 µM [falling, single point]
CCOC(=O)N1CCN(c2ncnc3c2[nH]c2ccc(F)cc23)CC1	7.08 µM [rising, partial curve, poor fit]	7.08 µM [rising, full curve]
Cc1ccccc1NCC(=O)N/N=C\c1ccc2c(c1)OCO2	35.5 µM [rising, partial curve, poor fit]	12.6 µM [rising, partial curve]
N#CC(C(=O)NC1CCCCC1)c1nc2ccccc2nc1N1CCN(c2ccccc2F)CC1 (stereo not drawn)	–	5.62 µM [rising, single point]
Cc1cc(S(=O)(=O)N2CCN=C2c2ccccc2)c(Cl)cc1Cl	–	7.08 µM [rising, full curve, poor fit]
O=C(Nc1ccc2ccccc2c1)NC1CCS(=O)(=O)C1 (stereo not drawn)	–	0.0224 µM [falling, full curve]
COc1ccc(Oc2ccc(NC(=O)c3ccccc3C)cc2)cc1	–	0.00447 µM [falling, full curve, poor fit]
COc1ccccc1/C=C1\SC(=O)N(CCC(=O)NNC(=O)c2ccccc2Cl)C1=O	–	6.31 µM [rising, single point]
Cc1ccc(Nc2nc(N)c(C#N)c(CC#N)c2C#N)cc1	15.8 µM [falling, partial curve, poor fit]	17.8 µM [falling, partial curve]
COC(=O)c1ccccc1NC1=C/C(=N\S(=O)(=O)c2cccs2)c2ccccc2C1=O	35.5 µM [falling, single point]	35.5 µM [falling, single point]
Cc1c(C(=O)NCc2ccc3c(c2)OCO3)oc2ccccc12	–	12.6 µM [rising, partial curve, poor fit]
CCOc1ccc(C(c2c(C)[nH][nH]c2=O)c2c(C)[nH][nH]c2=O)cc1OCC	–	11.2 µM [rising, single point]
Cc1[nH]c2ccccc2c1C(=O)/C=C/c1ccccc1Cl	–	17.8 µM [rising, partial curve]
CCCCOC(=O)N1CCOCCOCCN(C(=O)OCCCC)CCOCCOCC1	–	12.6 µM [rising, single point]
Cc1ccc(-n2nc(-c3ccc(N)cc3)cc2N)cc1	–	20 µM [rising, partial curve, poor fit]
COc1ccc(S(=O)(=O)N(CC(=O)Nc2cc(C)on2)Cc2ccccc2)cc1	–	15.8 µM [rising, single point]
COc1ccc(OC)c(NC(=O)CSc2n[nH]c(-c3ccccc3Cl)n2)c1	–	31.6 µM [rising, single point]

Some of these compounds in order of molar mass, descending.
SMILES	AC50 [1]	AC50 [2]
COc1ccc(S(=O)(=O)N(CC(=O)Nc2cc(C)on2)Cc2ccccc2)cc1	–	15.8 µM [rising, single point]
O=C(Nc1ccc2ccccc2c1)NC1CCS(=O)(=O)C1 (stereo not drawn)	–	0.0224 µM [falling, full curve]
Cc1ccc(Nc2nc(N)c(C#N)c(CC#N)c2C#N)cc1	15.8 µM [falling, partial curve, poor fit]	17.8 µM [falling, partial curve]

(continued)

SMILES	AC50 [1]	AC50 [2]
COc1ccc2cc(C(=O)c3ccccc3)c(=O)oc2c1	35.5 µM [rising, single point]	–
CCOC(=O)c1c(C)[nH]c(C2=NNC(=Nc3ccc(OCC)cc3)SC2)c1C	20 µM [rising, single point]	17.8 µM [rising, partial curve]
c1ccc(-c2cn(-c3ccccc3)c3ncnc(N4CCN(c5ccccc5)CC4)c23)cc1	6.31 µM [falling, single point]	–
CC(C)OC(=O)c1cc2c(ccn2C)n1CC(=O)N(Cc1ccccc1)c1ccccc1	11.2 µM [rising, partial curve]	11.2 µM [rising, partial curve]
c1ccc(-c2oc3ncnc(NCCCn4ccnc4)c3c2-c2ccccc2)cc1	7.94 µM [rising, partial curve]	14.1 µM [rising, partial curve]
Clc1ccccc1CNc1ncnc2nc[nH]c12	15.8 µM [rising, single point]	20 µM [rising, single point]
O=C(C1CCN(Cc2ccc(Cl)cc2)CC1)N1CCN(C(c2ccccc2)c2ccccc2)CC1	28.2 µM [falling, single point]	–
COc1ccc(OC)c(NC(=O)CSC2=Nc3ccccc3C3=NC(CCC(=O)NCc4ccco4)C(=O)N23)c1 (stereo not drawn)	0.355 µM [rising, partial curve, poor fit]	–
O=c1c(-c2cccc(F)c2)nc2cncnc2n1Cc1ccc(F)cc1	8.91 µM [falling, partial curve]	20 µM [falling, partial curve, poor fit]
Cc1cc(C(=O)CSc2n[nH]c(N)n2)c(C)n1-c1ccc2c(c1)OCO2	–	15.8 µM [rising, single point]
O=C(N/N=C/c1cc(Cl)ccc1O)C(=O)Nc1ccccc1OC(F)(F)C(F)F	1.41 µM [rising, partial curve, poor fit]	14.1 µM [rising, partial curve]
CC(C)=C1C2CCC1C(C(=O)Nc1cc(C)cc(C)c1)C2C(=O)O (stereo not drawn)	0.0282 µM [rising, full curve, poor fit]	–
CCOc1ccc(C2=C(C=C(C#N)C#N)C(c3ccccc3)c3ccccc3O2)cc1 (stereo not drawn)	–	12.6 µM [rising, partial curve]
O=C(COC(=O)CCCN1C(=O)c2cccc3cccc(c23)C1=O)Nc1cccc(C(F)(F)F)c1	–	2 µM [falling, full curve, poor fit]
O=C1Nc2ccc(S(=O)(=O)NCCC3=CCCCC3)c3cccc1c23	20 µM [rising, partial curve, poor fit]	22.4 µM [rising, single point]
Oc1cccc2c(NC(=S)Nc3ccc(SC(F)F)cc3)cccc12	–	11.2 µM [rising, partial curve]
CC1SC(=Nc2ccccc2)N(S(=O)(=O)c2ccccc2)C1=O (stereo not drawn)	–	12.6 µM [falling, partial curve, poor fit]

— PubChem BioAssay AID1487 (National Center for Advancing Translational Sciences (NCATS), 2009)
